This passage reports step yield and crude yield results from patent publication EP1864995B1 (UNIVERSIDAD DEL PAIS VASCO-EUSKAL HERRIKO UNIBERSITATEA, priority 2004, dated 2010).

The nature of the data set: general procedure: solution-phase peptide synthesis; EDCI/HOBT (fragment coupling); HATU/HOAT/DIPEA (cyclisation). The conditions noted are these: trifluoroacetate salt.

Some peptides are written in HELM: one residue between dots, names in brackets for other building blocks, links after the first $.

On to “CBZ-Asp(O^tBu)-(beta-Lactam)-Arg(PBF)-Gly-OBn”, for which, where the note is “coupling step”, the step yield is given as 82%.

As to “PEPTIDE1{R.G.D.[bLac3R]}$PEPTIDE1,PEPTIDE1,1:R1-4:R2$$$V2.0”, the crude yield (whole synthesis, overall) amounted to 17%.
